Most values lie at the floor of the assay. Slopes are relative: functional sequences can read slightly below zero.
system: Saccharomyces cerevisiae PS128 hsf1 delta, HSF1(1-493) fusion; test: growth estimate (transactivation domain function in HSF1 fusion, heat-shock survival) (a.u. (slope of normalised read count over time)); higher = stronger growth at 37°C, i.e. more transactivation activity; details: library: random library

Substance | growth estimate
SIVNLRLRIAPAAHRLHSAE | < -0.25
SIVQPGFGRKAGHVCDGILR | < -0.25
SIW | < -0.25
SIWWEARCRTRGRSAFY | < -0.25
SIYEEGSRHDTRSMFELPIR | < -0.25
SKCEVCNRLLHTGAYFLNEC | < -0.25
SKCSRNRSGESLRLEGWC | < -0.25
SKCTLSSSTGGSSWFVTIY | < -0.25
SKEGWGRSKLRCTAFRARPR | < -0.25
SKETMLIWGASARSRISFRV | < -0.25
SKEVGHCSQLLGWVGHTFQS | < -0.25
SKFNRASERGLYSRQSALHA | < -0.25
SKGNSGTLDPGFMSKSALGR | < -0.25
SKGTRISTSKRPGTEAPAFH | < -0.25
SKICVENIWGISRLIRRHRR | < -0.25
SKIHWVA | < -0.25
SKLAAVRSHLF | < -0.25
SKQLTWLGGTVAIKPGLG | < -0.25
SKRDFTRSASRVSRLLK | < -0.25
SKRGMILNLLQGASRGLQSA | < -0.25
SKRLPFLM | < -0.25
SKRRPLHPSKCQVGRQETVG | < -0.25
SKRTER | < -0.25
SKSEGCARRDSRV | < -0.25
SKSNLGWVEVCNEGHYWMRV | < -0.25

Single values from the list.
Value of SIWWEARCRTRGRSAFY under growth estimate: < -0.25
Value of SKCTLSSSTGGSSWFVTIY under growth estimate: < -0.25

Later entries:

Substance | growth estimate
SKSSSYHEWVDWKWGTVLKL | < -0.25
SKTESGAYWVREYPKGVSPK | < -0.25
SKVLGVRRRRHEVS | < -0.25
SKVTALVHFNKLG | < -0.25
SKWREGA | < -0.25
SKYGLTTVFGTGRSNSHFRP | < -0.25
SKYPYSLARRIRRVVLPSYP | < -0.25
SKYQHRTVGTAYHCASRRLR | < -0.25
SLAATCVYVASSSASDQTEA | < -0.25
SLAFPIRA | < -0.25
SLAHEVVQWEVAFP | -0.243
SLALHKVAEVVNDRFREKGA | < -0.25
SLALRNRSIGHTGYLPLPEV | < -0.25
SLAPGKPRVVNHRTRLMFLA | < -0.25
SLAPRDHCM | < -0.25
SLARSYAHGRTKSCLSAEIC | -0.229
SLASPTGVWSRLNCIRYNAA | < -0.25
SLCERVSSQAKKPGVGSGPA | < -0.25
SLCLTAPCLRAYLSKARTLH | < -0.25
SLD | < -0.25
SLDGRVTVRSSPVPLKTRAT | < -0.25
SLEVLLRYQSISESGWRTTV | < -0.25
SLEVSSGVRLRLIASAKRML | < -0.25
SLFD | < -0.25
SLFLPRPRWG | < -0.25

Substance | growth estimate
SLG | < -0.25
SLGFVAANLRITYGHRKPER | < -0.25
SLGGPQWTS | < -0.25
SLGLGSPVWRGLTEMIGSCC | < -0.25
SLGP | < -0.25
SLGSWSCFR | < -0.25
SLGVITSPMGGLFGQLAFV | < -0.25
SLIELPRGRPSPTS | < -0.25
SLIIVQTRQVNPLTVTGGRE | < -0.25
SLIKNEVAVIRRFVVK | < -0.25
SLISTSACSYDR | < -0.25
SLIYK | -0.248
SLKCN | -0.197
SLKGNISTSQIWRLQRLV | < -0.25
SLKMI | < -0.25
SLLGFLHSLFSLL | < -0.25
SLLIVEEHVCACSSHRNGMS | < -0.25
SLLLGVKHDVNRLRPGTRS | < -0.25
SLLPTQ | < -0.25
SLLVRMVGASKRSRLE | < -0.25
SLLYT | < -0.25
SLNPFMQREQDWGVPQAGHL | < -0.25
SLNQHLLRNFISPRSQPVVR | < -0.25
SLNRPCRTAQGGGISRTCRW | < -0.25
SLNSRYCTHSRSTLTDPVPS | < -0.25

Substance | growth estimate
SLNTKVTGLGRLAIG | < -0.25
SLPA | < -0.25
SLPILEHVWSLCILGVPLHQ | < -0.25
SLPLLMLHLGMLRRNAQRIV | < -0.25
SLPRYVAARDKA | < -0.25
SLQLSC | < -0.25
SLQPSRRNPLCRAPRVTTRA | < -0.25
SLRICSQWDWNVPSPILGQR | < -0.25
SLRIHLPMRSLTLNLQMWNP | < -0.25
SLRLLRGSGSLSRRRTSRSH | < -0.25
SLRPLLINCLIAFRPHGR | < -0.25
SLRPQVLQGTVCRVGV | < -0.25
SLRSLGGQGDTVSYGG | < -0.25
SLRT | < -0.25
SLSCAGYACPGLSNCASRWL | < -0.25
SLSCVAIGW | < -0.25
SLSFGGL | < -0.25
SLSILNSKVPWGFDLGVSRT | < -0.25
SLSNSTLVANHCCLEHKKRT | < -0.25
SLSPAIRNPWVGLGWSRRTL | < -0.25
SLSQIQQCASANQNLRGD | -0.171
SLSVG | < -0.25
SLTRVVRKILVAW | < -0.25
SLTTPALNLKVRMGLRRPPL | < -0.25

Fetched one by one from the entries so far, five records:
Substance | growth estimate
SLRPLLINCLIAFRPHGR | < -0.25
SLSILNSKVPWGFDLGVSRT | < -0.25
SLSCAGYACPGLSNCASRWL | < -0.25
SLRPQVLQGTVCRVGV | < -0.25
SLNTKVTGLGRLAIG | < -0.25
